Results are given in words; binding and its absence hold for the method and conditions named. In cells and extracts the contact can be indirect. Here binding means that the protein was enriched with, or labelled near, the bait; the list need not be complete.
biological target: GST-tagged EVH1 domain of Mena (human) (UniProt Q8N8S7); assay: affinity purification with mass spectrometry; GST-EVH1 Mena or GST resin on MV^D7 cell lysates; stained bands digested with trypsin, LC-MS/MS; only the target purified

Amino acid sequences for entries named in this document (tags omitted).
UniProt Q8BH43: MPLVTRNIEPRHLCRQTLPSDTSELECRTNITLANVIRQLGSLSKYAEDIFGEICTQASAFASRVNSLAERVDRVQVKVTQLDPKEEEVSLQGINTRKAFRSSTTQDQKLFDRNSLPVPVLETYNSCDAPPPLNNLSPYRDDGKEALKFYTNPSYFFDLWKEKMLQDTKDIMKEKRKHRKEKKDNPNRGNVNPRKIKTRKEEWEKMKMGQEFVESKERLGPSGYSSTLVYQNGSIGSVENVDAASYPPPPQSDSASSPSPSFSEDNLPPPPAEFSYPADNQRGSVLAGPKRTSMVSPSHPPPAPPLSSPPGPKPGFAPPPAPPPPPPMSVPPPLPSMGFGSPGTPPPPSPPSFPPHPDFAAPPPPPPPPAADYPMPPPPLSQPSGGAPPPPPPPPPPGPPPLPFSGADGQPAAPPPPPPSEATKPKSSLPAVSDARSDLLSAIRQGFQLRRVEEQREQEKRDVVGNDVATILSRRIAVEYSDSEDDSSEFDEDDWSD
UniProt Q5SQX6: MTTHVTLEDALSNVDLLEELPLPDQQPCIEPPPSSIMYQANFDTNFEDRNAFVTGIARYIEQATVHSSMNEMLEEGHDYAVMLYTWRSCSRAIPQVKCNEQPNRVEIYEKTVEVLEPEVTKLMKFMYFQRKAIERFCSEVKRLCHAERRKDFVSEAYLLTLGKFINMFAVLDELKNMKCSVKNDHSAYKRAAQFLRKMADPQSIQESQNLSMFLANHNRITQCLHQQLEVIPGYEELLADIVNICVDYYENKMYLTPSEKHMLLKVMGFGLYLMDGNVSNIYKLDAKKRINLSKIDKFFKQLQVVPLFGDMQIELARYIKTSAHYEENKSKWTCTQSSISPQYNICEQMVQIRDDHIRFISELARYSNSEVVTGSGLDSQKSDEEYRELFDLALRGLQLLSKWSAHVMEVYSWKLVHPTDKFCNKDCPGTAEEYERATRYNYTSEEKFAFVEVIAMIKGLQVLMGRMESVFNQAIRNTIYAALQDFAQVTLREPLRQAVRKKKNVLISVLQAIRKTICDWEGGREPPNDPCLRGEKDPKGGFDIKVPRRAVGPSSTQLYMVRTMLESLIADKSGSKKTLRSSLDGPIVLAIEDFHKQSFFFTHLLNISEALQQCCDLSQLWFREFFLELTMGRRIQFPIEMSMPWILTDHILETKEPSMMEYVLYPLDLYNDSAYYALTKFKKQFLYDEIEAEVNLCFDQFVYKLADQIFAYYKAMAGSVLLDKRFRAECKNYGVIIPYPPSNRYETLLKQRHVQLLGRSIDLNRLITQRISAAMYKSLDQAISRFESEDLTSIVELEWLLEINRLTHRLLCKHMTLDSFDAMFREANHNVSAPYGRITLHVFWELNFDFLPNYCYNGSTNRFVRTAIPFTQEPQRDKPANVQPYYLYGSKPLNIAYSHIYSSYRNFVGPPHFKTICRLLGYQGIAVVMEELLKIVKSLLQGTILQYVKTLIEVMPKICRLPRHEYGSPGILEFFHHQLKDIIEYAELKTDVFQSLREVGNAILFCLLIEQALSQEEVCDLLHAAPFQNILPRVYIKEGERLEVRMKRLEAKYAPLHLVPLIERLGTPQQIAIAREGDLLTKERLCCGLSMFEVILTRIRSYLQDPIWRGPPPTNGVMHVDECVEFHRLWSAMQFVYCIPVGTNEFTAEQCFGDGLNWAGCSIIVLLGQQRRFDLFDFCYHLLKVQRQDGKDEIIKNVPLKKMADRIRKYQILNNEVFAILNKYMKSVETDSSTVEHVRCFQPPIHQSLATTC

binding	Molecule
binds	WAVE2 (endogenous, MV^D7 cells) (from UniProt Q8BH43 1-497)
binds	PIR121 (endogenous, MV^D7 cells) (from UniProt Q5SQX6 1-1253)
binds	zyxin (endogenous, MV^D7 cells) (protein, UniProt Q62523 1-564) MAAPRPPPAISVSVSAPAFYAPQKKFAPVVAPKPKVNPFRPGDSEPPVAAGAQRAQMGRVGEIPPPPPEDFPLPPPPLIGEGDDSEGALGGAFPPPPPPMIEEPFPPAPLEEDIFPSPPPPLEEEGGPEAPTQLPPQPREKVCSIDLEIDSLSSLLDDMTKNDPFKARVSSGYVPPPVATPFVPKPSTKPAPGGTAPLPPWKTPSSSQPPPQPQAKPQVQLHVQPQAKPHVQPQPVSSANTQPRGPLSQAPTPAPKFAPVAPKFTPVVSKFSPGAPSGPGPQPNQKMVPPDAPSSVSTGSPQPPSFTYAQQKEKPLVQEKQHPQPPPAQNQNQVRSPGGPGPLTLKEVEELEQLTQQLMQDMEHPQRQSVAVNESCGKCNQPLARAQPAVRALGQLFHITCFTCHQCQQQLQGQQFYSLEGAPYCEGCYTDTLEKCNTCGQPITDRMLRATGKAYHPQCFTCVVCACPLEGTSFIVDQANQPHCVPDYHKQYAPRCSVCSEPIMPEPGRDETVRVVALDKNFHMKCYKCEDCGKPLSIEADDNGCFPLDGHVLCRKCHSARAQT
